Reference: PubChem BioAssay AID1347423 (Functional Genomics Laboratory (NCATS/FGL), 2020)
Among all 52,000 sequences or so, about 210 (0.4%) were called active.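 The calls were made as follows: active = gene whose silencing raises cell survival under the drug, median off-target-corrected z-score across its silencing RNAs 2 or more; inactive = the rest.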 The list shows a part of the results.

Test: Resistance to Poly (ADP-Ribose) Polymerase inhibitor: Gene Identification via Genome-wide siRNA Screen
Details: mouse BRCA2 R2336H ES cells, olaparib, CellTiter-Glo viability; active compounds read high
Method in brief: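 Mouse BRCA2 R2336H ES cells were reverse-transfected with siRNA (20 nM final), treated at 48 h with 500 nM olaparib, and read by CellTiter-Glo after 72 h. Scores: MAD-based z per siRNA, median per gene, seed off-target correction.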
For GGAUCCUCGGACUAAAAGUTT against Pnma1, the z-score was inactive: -0.0925. In the case of GGAUUGUGCAGAGCAUCUGTT against Card14, the z-score is reported as inactive: -1.28. In the case of “CGGAAUUUUGCCUUCAUGATT against 2010002H18Rik”, the z-score is reported as inactive: -0.773. For GGACAAAUGACUGGUACCCTT against Gorasp2, the z-score was inactive: 0.358. In the case of CCUGUUCUGUUAUCAACGGTT against Plxdc1, the z-score is reported as inactive: 1.82. In the case of GAUGUACGAUCUGGUGGUGTT against Exosc6, the z-score is reported as inactive: 0.00764. In the case of GGAAAGCUCACUUUCUUUUTT against Lmln, the z-score is reported as inactive: -1.02. For GCGACUUAGAAAAGAACAGTT against AI413631, the z-score was inactive: -0.873. For GGAGCCAUGCUAAGAGCAUTT against Dbil5, the z-score was inactive: -0.239. For GGAACAGCUCUUUUGUGCUTT against Rin2, the z-score was inactive: 0.366. With GGUUUUUCUUCAUCUUAUCTT against Hspb8 the z-score was inactive: -0.456. With CGAGUGAAUUCGAUGGACCTT against Olfr945 the z-score was inactive: -1.03. In the case of GGAAGAACUUUAAAAAUGCTT against Mic2l1, the z-score is reported as inactive: 0.477. With “GGAACAAAUCCUGGAACUGTT against 9530049C15Rik” the z-score was inactive: 2.37. For CGAAUGAGAUUUUCACUCUTT against Tek, the z-score was inactive: 0.678. With GCGGUUAUCUGCAUAUAGATT against Elys the z-score was inactive: -1.56. For GGACUGGAUUCAAACAAAATT against Lrrc1, the z-score was inactive: 1.12. In the case of “CCUCAGAAUUCGAAUGAACTT against C130052G03Rik”, the z-score is reported as inactive: 0.63. In the case of GGAAUCUAUCUGAUCACCATT against Olfr144, the z-score is reported as inactive: -0.225. In the case of “GCCAGGUUAAGCACUACGUTT against 2310022B05Rik”, the z-score is reported as inactive: 2.21. In the case of “GGAAGAGAAAGGCAAAAAGTT against E030049G20Rik”, the z-score is reported as inactive: -2.71. With GCACCAAGGAACUUGUUUCTT against Trpv2 the z-score was inactive: -0.405. For UGCUUUUUUGCCUAGCCAATT against Gpr135, the z-score was inactive: 1.52. In the case of GGAUUGUGGGAGAUAGAUATT against Psip1, the z-score is reported as inactive: -0.838. For GCUCUUGAUGUUUAGAGUUTT against Usp17, the z-score was inactive: 0.553. With GGUUUUGGUGUUCUAUACCTT against AI450540 the z-score was inactive: 0.295. In the case of GACCACCUGCUAAUGGGAGTT against Prp15, the z-score is reported as inactive: 1.45. With “GGCAAUAAUAAAGUCCAUCTT against D030041N04Rik” the z-score was inactive: -0.349. In the case of CGUAUUGGAAAGACUGCUUTT against Poldip3, the z-score is reported as inactive: 1.5. In the case of GCACAAAUCGAAUUGGCAUTT against Tgm3, the z-score is reported as inactive: -0.0147. With CCACAUUGGAACAAAGAGUTT against Lctl the z-score was inactive: 0.0203. In the case of GGACAGAAAAUGUGAAAAGTT against Mdfi, the z-score is reported as inactive: 0.0159. In the case of CCACAACAACAGGAGUACUTT against Nedd4l, the z-score is reported as inactive: 0.00777. In the case of GGAAAGGAAAUCAAGGAUUTT against Gngt2, the z-score is reported as inactive: -0.292. In the case of GCCCUGCUUCAUAUGGAAUTT against Elf2, the z-score is reported as inactive: 2.09. With GCUUGACGAACAGGUACUGTT against Palm2 the z-score was inactive: -0.0991. For GGGCAUGCAAUGUUCAUGCTT against Rho, the z-score was inactive: -1.33. In the case of GGGCCAUAAGAUCUGUACUTT against Ccl24, the z-score is reported as inactive: -0.00359. With “GGGAAUCUUCUUUCAGACCTT against C330003B14Rik” the z-score was inactive: 1.19. In the case of GGAGUUUUACGGACUGCUGTT against Pard6b, the z-score is reported as inactive: -0.748. With “CCGUCUGGCCAGUGAAAUUTT against 1700019D03Rik” the z-score was inactive: -0.121. With GGUUGCUUCCUCUUAAUUUTT against Eda the z-score was inactive: 1.44. For CGUGCAAGCAGUGAUUUUGTT against Smpx, the z-score was inactive: 1.32. For CCAAGAGGAAAGCAUAGAUTT against Fliih, the z-score was inactive: -0.808. For GGGCUGCAUUACACAAAUGTT against Olfr1496, the z-score was inactive: 0.0704. With GCAGGUCAACUGUUUUAUCTT against Bcap31 the z-score was inactive: 1.06. In the case of “GGUAUUCGUGGAGUGGAGATT against 6030457N17Rik”, the z-score is reported as inactive: 0.1. In the case of GACAGCAACGUGAAAUUAGTT against Xlr, the z-score is reported as inactive: 0.888. With “GCAACGGACUUCCUCUCACTT against A630047E20Rik” the z-score was inactive: 0.592. With GGACUGUCCUCCAAUUUGCTT against Cml3 the z-score was inactive: -0.556. For GGAUGUAAACGAAUGUGCUTT against Lrp4, the z-score was inactive: -0.14. With GGAGAGUCUCCAGACUUUGTT against Ixl the z-score was inactive: 1.33. With GGGUCAGAGUUUUUCCAUCTT against Otog the z-score was inactive: 0.692. For CGUCAAGAUCAAUAACUUGTT against LOC214403, the z-score was inactive: -0.419. In the case of GGAGCAGCUGCACUUGUAUTT against Nkiras1, the z-score is reported as inactive: -0.838. In the case of GGACACUAUGCAAUCACCCTT against Ubce7ip1, the z-score is reported as inactive: 1.03. With GGAUACACUGAUACUAUACTT against Pwp2h the z-score was inactive: -0.394. For “GGAACUUGAUCCUCAAUUUTT against 1110002E23Rik”, the z-score was inactive: 1.74. For CCAUGGCAGGCAAUUUGAUTT against Olfr1254, the z-score was inactive: -0.282. With GGCUGUUUUCUGUGCUACATT against Olfr298 the z-score was inactive: 4.07. For “CCAGUACGAUUUCUCUCGATT against 2310057J16Rik”, the z-score was inactive: 0.977. For GGCUCAGGCAUUGUCCUGUTT against Il10ra, the z-score was inactive: 0.31. For “GGACAGAAUGGACCUCUUCTT against B230113M03Rik”, the z-score was inactive: -1.22. In the case of CGAGUUCAAACCGUCCUCUTT against Sdhc, the z-score is reported as inactive: -0.413. For “CGGCUCGUUGAAGAACAAATT against 2600003E23Rik”, the z-score was inactive: -1.87. For CCCUAAAACCAGGUAUCAATT against Vdac1, the z-score was inactive: 0.0164. With GUAUAUCUUUGGCUGGGUGTT against Olfr460 the z-score was inactive: -1.13. In the case of GCGAUGUUAGUAAUACAACTT against Six1, the z-score is reported as inactive: -2.06. For CGUCUCUGAUAUUGUCGGCTT against Fbl, the z-score was inactive: -1.98. With UAUUAAACUCUUGAGACCGTT against Oxa1l the z-score was inactive: -0.271. For GCUGGUAGCAUUCUUAUCCTT against Xylt2, the z-score was inactive: 1.5. With GGACAGUGUCUAGAUAUUGTT against Fbln5 the z-score was inactive: -0.266. In the case of “GGAGAAGAGAGUAUUUAAUTT against 2310069P03Rik”, the z-score is reported as inactive: 0.547. For CGUGUUAUGACAAAAGAGGTT against Defb39, the z-score was inactive: 0.962. With GGUUCGUGUGGUUUAACAUTT against Afg3l1 the z-score was inactive: 0.554. With GGUGGAUAGAGCAAUUGAATT against Jph1 the z-score was inactive: -0.483. In the case of GGAAAUACUCAUCAAGUCUTT against Phldb2, the z-score is reported as inactive: -1.05. For GAGGCUCUGUGGAAUUUUATT against Olfr1217, the z-score was inactive: 1.65. For CCUGCUGCUUAUUAAAGUUTT against Bckdk, the z-score was inactive: 1.45. In the case of GGCUCUGUCUCUUAAUGGGTT against Gpx5, the z-score is reported as inactive: 0.933. For GGAGGAUCCACGAUUACUUTT against Ifnt1, the z-score was inactive: -1.38. With “CGUACAGUGAUGAUUUUGATT against 4922501C03Rik” the z-score was inactive: 1.45. For CCUAUAAUCCCAGAGAAAATT against Cobll1, the z-score was inactive: -0.731. In the case of GGCCAAGGUGAGAGUACUGTT against Hsd3b5, the z-score is reported as inactive: -0.796. With GGUCUCCACUGAGGACUGUTT against Ndufa2 the z-score was inactive: -0.746. With “GGGUAAAUCCUUCAUUCUGTT against 5730596K20Rik” the z-score was inactive: 0.869. In the case of CCUGGAGGUGACCGCUUUATT against Cdc20, the z-score is reported as inactive: -1.11. With GGUGGAUACACAGGACAAATT against Invs the z-score was inactive: -0.32. For GCACAAUUUCGUGUGAGCUTT against Sfxn5, the z-score was inactive: -0.969. For GGACGAACUCAUCAACAGUTT against Gtf2ird1, the z-score was inactive: 1.42. For “GCCUGUCAUUAAUCUGACATT against 9030409G11Rik”, the z-score was inactive: -0.774. For CGACGAAGAUUCUGACAAUTT against Gpr153, the z-score was inactive: 1.63. With GGAGUAAACGACAAAAUGGTT against Gosr1 the z-score was inactive: -0.845. With “GGUGGUGACAGGAACCUCUTT against A630029F06” the z-score was inactive: 0.29. For GCCCGCAUUUUGGAAACUCTT against Lmbr1, the z-score was inactive: -0.114. For GGCUGAACUUCUUUCCAAGTT against Cd209b, the z-score was inactive: 0.0468. For GAGCCACUUUCUCAAGUGUTT against Pou3f1, the z-score was inactive: 0.933. With GGAGCUCUGUCAUGAGUUUTT against AI427652 the z-score was inactive: 1.43. In the case of CGUUGGUACCAAGAAGUACTT against Snai3, the z-score is reported as inactive: -0.942. In the case of GCCAUAUCUGUCCAAGUUATT against Sdf2l1, the z-score is reported as inactive: -0.182. In the case of GGUCCAAAAGUGACAUAUATT against Ddx4, the z-score is reported as inactive: -0.934. With “GGACAGGUAAAAAUUUAGGTT against 9330128H10Rik” the z-score was inactive: 0.803. In the case of GGUGAACUGUCAUAACUGGTT against Synj2, the z-score is reported as inactive: -1.62. With GCAUCCUUUGUCGAAGUGGTT against Mrcl the z-score was inactive: -1.21.
